According to PubChem BioAssay AID493014 (National Center for Advancing Translational Sciences (NCATS), 2011):
Some of the results follow. These are further read-outs of the screen, such as a control signal, another cell line or another target. No call is given for them. Most of these compounds were active or inconclusive in the main read-out, so they are no random draw. The note in brackets gives the kind of curve behind each potency; many fits are weak.

Assay: qHTS Assay to Find Inhibitors of Chronic Active B-Cell Receptor Signaling
Settings: ABC-DLBCL IkBa-CBG/CBR reporter, luminescence ratio (green luciferase fused to IkBa over red control in TMD8 lymphoma cells), 4 h
Summary of the method: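 Concentration-response series (up to 46 uM) were applied to TMD8 dual-reporter cells for 4 h at 37C with doxycycline. Green/red ratio, after filter-overlap correction, defined %Activity; red signal alone was normalised to basal cells and zero luminescence.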

[1] = measured here: CBR red luminescence, cell number
[2] = measured here: IkBa-CBG green luminescence

Row | Structure (SMILES) | AC50 [1] | AC50 [2]
1 | N#CCCn1nc(-c2ccccc2)cc1-n1c(C(F)(F)F)nc2ccccc21 | 35.5 µM [falling, single point] | 
2 | CCCOC(=O)c1cc(NC(=O)/C=C/c2ccccc2)ccc1O | 3.55 µM [falling, full curve, poor fit] | 
3 | CCc1sc(C(=O)Nc2cccnc2)cc1Br | 0.794 µM [rising, full curve, poor fit] | 
4 | O=C(NC1CCc2ccccc21)c1cc(COc2ccc(F)cc2F)on1 (configuration not stated) | 3.98 µM [falling, partial curve, poor fit] | 
5 | O=C(CSc1n[nH]c(-c2ccc(Br)cc2)n1)N1CCOCC1 | 4.11 µM [rising, single point] | 
6 | COc1ccccc1NC(=O)CSc1nc2ccccc2c(=O)n1CCC(=O)NC1CCCCC1 | 35.5 µM [falling, single point] | 
7 | O=C(/C=C/c1ccccc1Cl)NCCc1ccccc1 | 12.6 µM [falling, single point] | 
8 | Cn1c(/C(C#N)=C/Nc2ccccn2)nc2ccccc21 | 0.103 µM [rising, full curve, poor fit] | 
9 | COC(=O)c1c(C)cc(C)n2c1nc1ccccc12 | 35.5 µM [falling, single point] | 
10 | CC(C)(C)C(=O)O/N=C(\N)COc1cccc(Cl)c1 | 35.5 µM [rising, single point] | 
11 | Cc1ccc(S(=O)(=O)N2CCCOC2CNC(=O)C(=O)NCCC2=CCCCC2)cc1 (configuration not stated) | 23.1 µM [rising, single point] | 
12 | Cc1noc(C)c1CSc1ccccc1C(=O)N(C)CC(=O)Nc1cccc(F)c1 | 5.8 µM [rising, partial curve, poor fit] | 
13 | O=C(Nc1ccc2ccccc2c1)c1cccnc1 | 11.2 µM [falling, partial curve, poor fit] | 
14 | CC1CN=C(N(C(=S)Nc2ccccc2)c2cccc(C(F)(F)F)c2)S1 (configuration not stated) | 1 µM [rising, full curve] | 
15 | COc1ccc(CCNC(=O)c2ccc(CS(=O)Cc3ccc(Cl)cc3)o2)cc1OC (configuration not stated) | 0.112 µM [falling, full curve, poor fit] | 
16 | COCCNCCCCSc1ccc(Cl)cc1 | 10 µM [falling, partial curve, poor fit] | 
17 | S=C(NCc1ccc2[nH]c3c(c2c1)CCCC3)Nc1ccccc1Cl |  | 20.6 µM [falling, single point]
18 | CCN(CC)Cc1c(C(=O)N/N=C/c2cccc3ccccc23)nnn1-c1nonc1N | 3.16 µM [falling, single point] | 
19 | CCCc1cc2c(cc1NC(=O)c1ccccc1F)OCO2 | 32.6 µM [rising, single point] | 
20 | CCN(CC)C(=O)C1CCCN(c2ccc([N+](=O)[O-])cc2/C=N/NC(=O)c2cccc(Br)c2)C1 (configuration not stated) | 2.82 µM [falling, partial curve, poor fit] | 
21 | Cc1c(N(C)S(=O)(=O)c2cccc(C(=O)NCC3CCCO3)c2)c(=O)n(-c2ccccc2)n1C (configuration not stated) | 32.6 µM [rising, partial curve, poor fit] | 

Row | Structure (SMILES) | AC50 [1] | AC50 [2]
22 | O=C(N/N=C/C(Cl)=C/c1ccccc1)c1ccccn1 | 11.2 µM [falling, partial curve] | 
23 | Cc1ccc(-n2ncc3c(N(C)Cc4ccccc4)ncnc32)cc1 | 5.01 µM [rising, partial curve, poor fit] | 
24 | CCCOc1ccc(-c2nnc(-c3ccco3)o2)cc1 | 3.16 µM [rising, full curve, poor fit] | 
25 | CCOc1cc(CN2CCCC(C(=O)c3cccc(C(F)(F)F)c3)C2)ccc1O (configuration not stated) | 22.4 µM [falling, partial curve, poor fit] | 
26 | COc1ccc(C(=O)Oc2ccc3ccc(=O)oc3c2)cc1 | 0.0891 µM [rising, full curve, poor fit] | 
27 | COc1ccc(-c2ccnc3nc(-n4cccc4)nn23)cc1 | 0.891 µM [falling, full curve, poor fit] | 
28 | Cn1c(=O)c(C#N)c(-c2ccccc2)n2cnnc12 | 0.92 µM [falling, full curve, poor fit] | 
29 | CN(C)CCN(C(=O)c1ccc(Br)s1)c1nc2cc3c(cc2s1)OCCO3 | 3.55 µM [falling, full curve] | 
30 | COc1cc2c(c(OC)c1OC)-c1ccc(NC(=O)c3ccccc3)c(=O)cc1[C@@H](NC(C)=O)CC2 |  | 31.6 µM [falling, single point]
31 | CCNc1nc(SCCOc2ccc(Br)cc2)nc(N(C)C)n1 | 11.2 µM [rising, single point] | 
32 | COCC(=O)Nc1nc(-c2ccc(-c3ccccc3)cc2)cs1 | 14.1 µM [falling, partial curve] | 
33 | CC1=C(C(=O)N2CCOCC2)C(c2ccc(Cl)cc2)NC(=S)N1 (configuration not stated) | 5.17 µM [rising, partial curve, poor fit] | 
34 | Cc1ccc(CNC(=O)CN2C(=O)NC(C)(c3cccc(Br)c3)C2=O)cc1 (configuration not stated) | 3.16 µM [falling, single point] | 
35 | COc1ccc(Br)cc1/C=N/NC(=O)Cn1nnnc1N | 35.5 µM [falling, single point] | 
36 | O=C(Nc1ccc(Cl)cc1)N1CCSC1=NCc1ccccc1 | 2.82 µM [rising, partial curve, poor fit] | 
37 | NC(=O)C1CCN(C(=O)c2ccc(NS(=O)(=O)c3ccc(F)cc3)cc2)CC1 | 29.1 µM [falling, single point] | 
38 | CCOC(=O)c1cc2sccc2n1CC(=O)OC | 29.1 µM [falling, single point] | 
39 | COc1ccc2c(=O)c3c(=O)n(Cc4ccco4)c(-c4ccc(C)cc4)nc3oc2c1 | 1.84 µM [falling, full curve] | 20.6 µM [rising, partial curve, poor fit]
40 | Cc1ccccc1C(=O)NNC(=S)NC(=O)c1cccs1 | 4.47 µM [falling, partial curve] | 
41 | COc1ccc(S(=O)(=O)/N=C2/NC(=O)/C(=C\c3cc(OC)c(OC)cc3[N+](=O)[O-])S2)cc1 | 29.1 µM [rising, single point] | 

In the list so far, 3 have a CF3 group:
Row | Structure (SMILES) | AC50 [1] | AC50 [2]
1 | N#CCCn1nc(-c2ccccc2)cc1-n1c(C(F)(F)F)nc2ccccc21 | 35.5 µM [falling, single point] | 
14 | CC1CN=C(N(C(=S)Nc2ccccc2)c2cccc(C(F)(F)F)c2)S1 (configuration not stated) | 1 µM [rising, full curve] | 
25 | CCOc1cc(CN2CCCC(C(=O)c3cccc(C(F)(F)F)c3)C2)ccc1O (configuration not stated) | 22.4 µM [falling, partial curve, poor fit] | 
